Data from article PMC4279419, “Angiostatic, tumor inflammatory and anti-tumor effects of CXCL4^47–70 and CXCL4L1^47–70 in an EGF-dependent breast cancer model” (Oncotarget, 2014).

Molecular target: recombinant human epidermal growth factor (EGF) (human)
Assay: ELISA; 2 μg/ml EGF in PBS coated overnight at room temperature on high protein-binding ELISA plates, blocked with 0.1% casein; dilution curve of biotinylated peptide at 37 °C; detected with peroxidase-conjugated streptavidin, OD450; both purified

binding: binds
Binder: NGRKICLDLQAPLYKKIIKKLLES (peptide, UniProt P02776 78-101, biotin on the N-terminus (exactly one biotin group)) [NH2-terminally biotinylated CXCL4^47–70 peptide]

Results are given in words; binding and its absence hold for the method and conditions named. A result given as binding can be weak or reduced; the word gives no strength.
